Data taken from article PMC4721551.
Results are given in words; binding and its absence hold for the method and conditions named.

Biological target: full-length DnaA (wtDnaA) (E. coli) (UniProt P03004)
Experiment: condition: only without SOPG liposomes (aqueous phase), 0.8 uM DnaA; cross-linking; 0.8 uM ATP-DnaA with 2.4 uM BMOE in buffer AC without DTT, 1 mM ATP, aqueous phase without SOPG liposomes (0 uM), 20 min at 30 C; non-reducing SDS/PAGE (10% gel), Coomassie staining; both purified

B1: full-length DnaA (wtDnaA) (protein, UniProt P03004 1-467)
chain: MSLSLWQQCLARLQDELPATEFSMWIRPLQAELSDNTLALYAPNRFVLDWVRDKYLNNINGLLTSFCGADAPQLRFEVGTKPVTQTPQAAVTSNVAAPAQVAQTQPQRAAPSTRSGWDNVPAPAEPTYRSNVNVKHTFDNFVEGKSNQLARAAARQVADNPGGAYNPLFLYGGTGLGKTHLLHAVGNGIMARKPNAKVVYMHSERFVQDMVKALQNNAIEEFKRYYRSVDALLIDDIQFFANKERSQEEFFHTFNALLEGNQQIILTSDRYPKEINGVEDRLKSRFGWGLTVAIEPPELETRVAILMKKADENDIRLPGEVAFFIAKRLRSNVRELEGALNRVIANANFTGRAITIDFVREALRDLLALQEKLVTIDNIQKTVAEYYKIKVADLLSKRRSRSVARPRQMAMALAKELTNHSLPEIGDAFGGRDHTTVLHACRKIEQLREESHDIKEDFSNLIRTLSS
- binding: no binding
